{"source": "patent US7199114B2", "about": "“Triterpene quaternary salts as biologically active surfactants” (The Regents of the University of Minnesota, priority 2002, dated 2007)", "system": "dollar spot", "assay": "Bentgrass dollar spot trial at Rutgers University, lesion count", "type": "in vivo", "conditions": "11.8 fl oz + Latron B-1956 4.18 fl oz per 1000 sq. ft., spray interval 7 days", "protocol": "Similar experiments were performed at Rutgers University to test for treatment of bentgrass infected with dollar spot. Test compounds were mixed in aqueous solution with the adjuvant Latron B-1956® (Rohm and Haas) and applied to the grass at a rate of 4.18 fluid ounces per 1000 square feet and an interval of every 7 days. The number of lesions per plot were then counted and averaged over the replicate plots. Treatment with fertilizers or other fungicides were also performed.", "note": "The name of at least one read-out is uncertain.", "data": [{"smiles": "C=C(C)[C@@H]1CC[C@]2(COC(=O)C[N+](C)(CCCCCCCCCC)CCCCCCCCCC)CC[C@]3(C)C(CCC4[C@@]5(C)CC[C@H](OC(=O)C[N+](C)(CCCCCCCCCC)CCCCCCCCCC)C(C)(C)C5CC[C@]43C)C12", "note": "(some centres unmarked) [Compound 65]", "values": [{"measurement": "Number of Lesion Centers/Plot", "setting": "June 18", "result": 22.5, "unit": "Lesion Centers/Plot"}, {"measurement": "Number of Lesion Centers/Plot", "setting": "June 27", "result": 17.5, "unit": "Lesion Centers/Plot"}]}]}
